# Results as given in patent US20110008340A1.
# Amino acid sequences for entries named in this document (tags omitted). A change or cut given only in a name is not applied to a line headed by its entry. Residues count along the entry.
# UniProt P00746, residues 26-253: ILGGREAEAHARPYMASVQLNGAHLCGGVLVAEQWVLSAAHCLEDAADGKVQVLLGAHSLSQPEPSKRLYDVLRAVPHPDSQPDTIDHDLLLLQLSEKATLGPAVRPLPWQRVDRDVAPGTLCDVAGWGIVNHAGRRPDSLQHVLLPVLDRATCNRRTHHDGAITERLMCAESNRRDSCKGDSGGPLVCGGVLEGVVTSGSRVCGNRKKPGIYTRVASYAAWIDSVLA
# UniProt P27918: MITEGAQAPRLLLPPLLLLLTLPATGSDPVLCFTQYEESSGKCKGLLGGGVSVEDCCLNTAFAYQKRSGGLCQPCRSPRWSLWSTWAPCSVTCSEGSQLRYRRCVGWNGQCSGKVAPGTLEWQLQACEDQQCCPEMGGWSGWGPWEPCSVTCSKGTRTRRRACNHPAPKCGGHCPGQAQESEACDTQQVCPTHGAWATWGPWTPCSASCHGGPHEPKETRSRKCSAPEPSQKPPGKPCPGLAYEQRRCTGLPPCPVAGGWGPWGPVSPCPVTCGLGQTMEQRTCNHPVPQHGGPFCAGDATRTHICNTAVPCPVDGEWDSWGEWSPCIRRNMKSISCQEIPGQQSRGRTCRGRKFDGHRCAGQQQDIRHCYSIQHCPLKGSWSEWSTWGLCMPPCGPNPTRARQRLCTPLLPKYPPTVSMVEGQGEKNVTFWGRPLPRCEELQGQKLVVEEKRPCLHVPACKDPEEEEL
# These are yes or no findings as the source states them, for the method shown. Some binding calls cover weakened binding; strength is not graded here.
# Target: factor D (UniProt P00746)
# Test: direct binding experiments
substance,measurement,value
human properdin (from UniProt P27918 29-469),binding,binds
